These are yes or no findings as the source states them, for the method shown. In cells and extracts the contact can be indirect. These calls come from enrichment with a bait or labelling near it, and not all partners need be listed. For some assays here: Sequences can lack the tags named with a protein.
T1: ALFA-lcb1ΔTM1 (Lcb1 lacking TM1, Y55-S73) (S. cerevisiae) (UniProt P25045)
T1 sequence: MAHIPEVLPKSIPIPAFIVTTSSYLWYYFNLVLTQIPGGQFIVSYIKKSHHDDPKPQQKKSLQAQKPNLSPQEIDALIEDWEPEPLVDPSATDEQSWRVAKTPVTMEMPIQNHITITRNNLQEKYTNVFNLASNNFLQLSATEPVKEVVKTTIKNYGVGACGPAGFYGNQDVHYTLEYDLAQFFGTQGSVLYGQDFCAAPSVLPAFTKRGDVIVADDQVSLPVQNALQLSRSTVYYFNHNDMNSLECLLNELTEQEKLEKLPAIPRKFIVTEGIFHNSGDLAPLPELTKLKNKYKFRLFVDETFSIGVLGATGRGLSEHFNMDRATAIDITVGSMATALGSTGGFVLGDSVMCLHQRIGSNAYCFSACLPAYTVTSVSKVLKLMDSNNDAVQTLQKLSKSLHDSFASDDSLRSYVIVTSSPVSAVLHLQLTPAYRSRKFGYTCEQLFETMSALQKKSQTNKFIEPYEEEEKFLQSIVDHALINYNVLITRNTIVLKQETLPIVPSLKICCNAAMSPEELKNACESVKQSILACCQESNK

Sequences of proteins named here, by UniProt entry; tags and fusion partners are left off.
UniProt P53224: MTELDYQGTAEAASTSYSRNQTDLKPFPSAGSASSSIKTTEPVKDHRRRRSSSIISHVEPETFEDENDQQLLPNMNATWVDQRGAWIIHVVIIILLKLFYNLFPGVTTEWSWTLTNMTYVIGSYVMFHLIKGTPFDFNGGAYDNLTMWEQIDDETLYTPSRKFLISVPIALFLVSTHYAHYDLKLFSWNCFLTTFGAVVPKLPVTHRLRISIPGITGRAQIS

T2: ALFA-Lcb1 (S. cerevisiae) (UniProt P25045)
T2 sequence: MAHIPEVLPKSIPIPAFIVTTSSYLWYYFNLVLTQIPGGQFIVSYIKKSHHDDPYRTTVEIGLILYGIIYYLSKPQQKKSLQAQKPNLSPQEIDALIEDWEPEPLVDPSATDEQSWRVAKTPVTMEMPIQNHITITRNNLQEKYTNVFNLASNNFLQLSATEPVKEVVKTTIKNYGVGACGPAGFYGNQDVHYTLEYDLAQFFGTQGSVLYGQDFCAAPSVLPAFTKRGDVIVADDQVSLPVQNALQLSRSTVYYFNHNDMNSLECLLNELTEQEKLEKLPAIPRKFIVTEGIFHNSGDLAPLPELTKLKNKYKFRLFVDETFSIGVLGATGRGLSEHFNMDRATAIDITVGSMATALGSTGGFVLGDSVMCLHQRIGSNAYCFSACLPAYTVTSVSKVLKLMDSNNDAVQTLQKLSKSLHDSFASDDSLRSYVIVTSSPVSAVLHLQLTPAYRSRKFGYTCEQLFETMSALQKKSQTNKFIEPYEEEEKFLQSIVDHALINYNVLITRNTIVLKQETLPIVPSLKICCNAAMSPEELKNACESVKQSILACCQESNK

T3: Lcb1 with an internal 3xFLAG epitope inserted after P9 (S. cerevisiae) (UniProt P25045)
T3 sequence: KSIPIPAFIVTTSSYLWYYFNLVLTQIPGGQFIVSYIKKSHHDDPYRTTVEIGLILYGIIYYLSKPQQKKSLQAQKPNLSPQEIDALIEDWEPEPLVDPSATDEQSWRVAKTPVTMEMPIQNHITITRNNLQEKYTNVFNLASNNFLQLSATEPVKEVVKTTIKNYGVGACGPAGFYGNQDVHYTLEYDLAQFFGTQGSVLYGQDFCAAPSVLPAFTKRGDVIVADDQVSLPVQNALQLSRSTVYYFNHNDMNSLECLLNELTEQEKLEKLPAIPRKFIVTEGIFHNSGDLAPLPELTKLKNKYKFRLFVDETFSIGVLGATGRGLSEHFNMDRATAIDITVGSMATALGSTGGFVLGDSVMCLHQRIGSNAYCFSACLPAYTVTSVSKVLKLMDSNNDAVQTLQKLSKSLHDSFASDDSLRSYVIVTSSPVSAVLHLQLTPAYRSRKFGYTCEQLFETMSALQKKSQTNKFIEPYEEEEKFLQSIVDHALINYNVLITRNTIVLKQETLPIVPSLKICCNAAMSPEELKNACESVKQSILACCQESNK

T4: ALFA-Lcb1 (S. cerevisiae), P25045
T4 chain: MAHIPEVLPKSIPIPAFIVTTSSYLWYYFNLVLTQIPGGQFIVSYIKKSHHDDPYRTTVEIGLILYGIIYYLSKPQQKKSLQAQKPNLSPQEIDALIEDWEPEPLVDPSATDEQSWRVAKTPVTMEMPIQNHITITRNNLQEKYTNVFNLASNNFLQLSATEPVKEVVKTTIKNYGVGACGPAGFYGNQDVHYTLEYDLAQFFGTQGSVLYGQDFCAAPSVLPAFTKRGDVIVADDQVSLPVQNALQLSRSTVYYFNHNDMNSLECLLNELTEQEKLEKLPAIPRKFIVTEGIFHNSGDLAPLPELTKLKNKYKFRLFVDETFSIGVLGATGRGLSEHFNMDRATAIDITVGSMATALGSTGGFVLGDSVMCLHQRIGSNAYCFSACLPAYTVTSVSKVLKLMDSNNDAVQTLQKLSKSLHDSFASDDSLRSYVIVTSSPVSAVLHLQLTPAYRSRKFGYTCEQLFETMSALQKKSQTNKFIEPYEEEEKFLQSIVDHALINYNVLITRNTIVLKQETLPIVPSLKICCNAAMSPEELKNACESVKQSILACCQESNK


Legend:
Experiment in all cases: affinity purification with mass spectrometry
[1] = target: T1, ALFA-lcb1ΔTM1 (Lcb1 lacking TM1, Y55-S73) (S. cerevisiae)
[2] = target: T2, ALFA-Lcb1 (S. cerevisiae)
[3] = target: T3, Lcb1 with an internal 3xFLAG epitope inserted after P9 (S. cerevisiae)
[4] = target: T4, ALFA-Lcb1 (S. cerevisiae), P25045; conditions: remark: other sources report otherwise

| Molecule | binding [1] | binding [2] | further results |
| --- | --- | --- | --- |
| Orm1 (endogenous, untagged) (from UniProt P53224 1-222) | binds | binds |  |
| Sac1 (endogenous) (enzyme, UniProt P32368 1-623) MTGPIVYVQNADGIFFKLAEGKGTNDAVIHLANQDQGVRVLGAEEFPVQGEVVKIASLMGFIKLKLNRYAIIANTVEETGRFNGHVFYRVLQHSIVSTKFNSRIDSEEAEYIKLLELHLKNSTFYFSYTYDLTNSLQRNEKVGPAASWKTADERFFWNHYLTEDLRNFAHQDPRIDSFIQPVIYGYAKTVDAVLNATPIVLGLITRRSIFRAGTRYFRRGVDKDGNVGNFNETEQILLAENPESEKIHVFSFLQTRGSVPIYWAEINNLKYKPNLVLGENSLDATKKHFDQQKELYGDNYLVNLVNQKGHELPVKEGYESVVHALNDPKIHYVYFDFHHECRKMQWHRVKLLIDHLEKLGLSNEDFFHKVIDSNGNTVEIVNEQHSVVRTNCMDCLDRTNVVQSVLAQWVLQKEFESADVVATGSTWEDNAPLLTSYQNLWADNADAVSVAYSGTGALKTDFTRTGKRTRLGAFNDFLNSASRYYQNNWTDGPRQDSYDLFLGGFRPHTASIKSPFPDRRPVYIQLIPMIICAALTVLGATIFFPKDRFTSSKNLLYFAGASIVLALSTKFMFKNGIQFVNWPKLVDVGFLVVHQTHDKEQQFKGLKYAQSPKFSKPDPLKRD |  | binds |  |
| Orm2 (endogenous, untagged) (protein, UniProt Q06144 1-216) MIDRTKNESPAFEESPLTPNVSNLKPFPSQSNKISTPVTDHRRRRSSSVISHVEQETFEDENDQQMLPNMNATWVDQRGAWLIHIVVIVLLRLFYSLFGSTPKWTWTLTNMTYIIGFYIMFHLVKGTPFDFNGGAYDNLTMWEQINDETLYTPTRKFLLIVPIVLFLISNQYYRNDMTLFLSNLAVTVLIGVVPKLGITHRLRISIPGITGRAQIS | binds | binds |  |
| Sac1 (PI4P phosphatase) (enzyme, UniProt P32368 1-623) MTGPIVYVQNADGIFFKLAEGKGTNDAVIHLANQDQGVRVLGAEEFPVQGEVVKIASLMGFIKLKLNRYAIIANTVEETGRFNGHVFYRVLQHSIVSTKFNSRIDSEEAEYIKLLELHLKNSTFYFSYTYDLTNSLQRNEKVGPAASWKTADERFFWNHYLTEDLRNFAHQDPRIDSFIQPVIYGYAKTVDAVLNATPIVLGLITRRSIFRAGTRYFRRGVDKDGNVGNFNETEQILLAENPESEKIHVFSFLQTRGSVPIYWAEINNLKYKPNLVLGENSLDATKKHFDQQKELYGDNYLVNLVNQKGHELPVKEGYESVVHALNDPKIHYVYFDFHHECRKMQWHRVKLLIDHLEKLGLSNEDFFHKVIDSNGNTVEIVNEQHSVVRTNCMDCLDRTNVVQSVLAQWVLQKEFESADVVATGSTWEDNAPLLTSYQNLWADNADAVSVAYSGTGALKTDFTRTGKRTRLGAFNDFLNSASRYYQNNWTDGPRQDSYDLFLGGFRPHTASIKSPFPDRRPVYIQLIPMIICAALTVLGATIFFPKDRFTSSKNLLYFAGASIVLALSTKFMFKNGIQFVNWPKLVDVGFLVVHQTHDKEQQFKGLKYAQSPKFSKPDPLKRD |  |  | binding [3]: binds |
| Lcb2 (endogenous) (enzyme, UniProt P40970 1-561) MSTPANYTRVPLCEPEELPDDIQKENEYGTLDSPGHLYQVKSRHGKPLPEPVVDTPPYYISLLTYLNYLILIILGHVHDFLGMTFQKNKHLDLLEHDGLAPWFSNFESFYVRRIKMRIDDCFSRPTTGVPGRFIRCIDRISHNINEYFTYSGAVYPCMNLSSYNYLGFAQSKGQCTDAALESVDKYSIQSGGPRAQIGTTDLHIKAEKLVARFIGKEDALVFSMGYGTNANLFNAFLDKKCLVISDELNHTSIRTGVRLSGAAVRTFKHGDMVGLEKLIREQIVLGQPKTNRPWKKILICAEGLFSMEGTLCNLPKLVELKKKYKCYLFIDEAHSIGAMGPTGRGVCEIFGVDPKDVDILMGTFTKSFGAAGGYIAADQWIIDRLRLDLTTVSYSESMPAPVLAQTISSLQTISGEICPGQGTERLQRIAFNSRYLRLALQRLGFIVYGVADSPVIPLLLYCPSKMPAFSRMMLQRRIAVVVVAYPATPLIESRVRFCMSASLTKEDIDYLLRHVSEVGDKLNLKSNSGKSSYDGKRQRWDIEEVIRRTPEDCKDDKYFVN |  | binds |  |
| Tsc3 (endogenous), Q3E790 1-80 (protein) MTQHKSSMVYIPTTKEAKRRNGKSEGILNTIEEVVEKLYWTYYIHLPFYLMASFDSFFLHVFFLTIFSLSFFGILKYCFL |  |  | binding [4]: binds |
